Measured values reported in US20100173833A1, “METHODS AND COMPOSITION FOR USE OF CYCLIC ANALOGUES OF HISTATIN” (priority 2007, published 2010).
At least one peptide structure holds a part that was inferred or is arguable (an end, a ring closure or a residue). Bridge positions count the residues as written; N and C are the ends. Peptide text beside a SMILES is read from it.

Columns and labels:
Assay type in all cases: cell-based
[1] = test system: C. albicans (SC5314); assay: Inhibition of microbial mycelial growth; conditions: 50 μM
[2] = test system: Bacillus subtilis; assay: MIC, inhibition of cell growth; conditions: Gram-positive Bacillus subtilis
[3] = test system: C. albicans (SC5314); assay: Conditions of inhibition, cell viability; conditions: 50 μM, 37° C. (FIG. 2B)
[4] = test system: fungal or yeast strains; assay: MIC comparison across fungal or yeast strains

N=C(N)NCCC[C@H](NC(=O)[C@H](Cc1c[nH]cn1)NC(=O)[C@@H]1CSSC[C@H](NC(=O)[C@H](Cc2c[nH]cn2)NC(=O)[C@H](Cc2c[nH]cn2)NC(=O)[C@@H](N)CCCNC(=N)N)C(=O)N[C@@H](Cc2ccc(O)cc2)C(=O)N[C@@H](CCCCN)C(=O)N[C@@H](CCCNC(=N)N)C(=O)N[C@@H](CCCCN)C(=O)N[C@@H](Cc2ccccc2)C(=O)N[C@@H](Cc2c[nH]cn2)C(=O)N[C@@H](CCC(=O)O)C(=O)N[C@@H](CCCCN)C(=O)N[C@@H](Cc2c[nH]cn2)C(=O)N[C@@H](Cc2c[nH]cn2)C(=O)N1)C(=O)NCC(=O)N[C@@H](Cc1ccc(O)cc1)C(=O)O [DB2121] (H-RHHCYKRKFHEKHHCHRGY-OH; disulfide 4-15)
inhibition of mycelial growth ([1]; pre-incubation 1.5 hours 37° C., then YPD with 10% FBS): significant inhibition of mycelial growth
mycelial growth, fold less than control and other treatments ([1]; serial dilutions): 500-1000 fold
fold greater ability over histatin H5 to inhibit [2]: ~40 fold
exposure time to kill Candida [3]: 5 min
MIC fold more potent than histatin H5 or P-113 [4]: at least 100 fold
